In the supplement of paper PMC10849652:
This is one part of the list.

Sequences of proteins named here, by UniProt entry; tags and fusion partners are left off. A change or cut given only in a name is not applied to a line headed by its entry.
UniProt Q9UKJ5: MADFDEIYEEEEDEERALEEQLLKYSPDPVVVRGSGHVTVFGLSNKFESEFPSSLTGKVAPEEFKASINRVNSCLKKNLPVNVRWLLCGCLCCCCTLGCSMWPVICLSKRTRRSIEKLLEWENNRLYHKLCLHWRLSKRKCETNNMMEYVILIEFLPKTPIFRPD
UniProt P51788: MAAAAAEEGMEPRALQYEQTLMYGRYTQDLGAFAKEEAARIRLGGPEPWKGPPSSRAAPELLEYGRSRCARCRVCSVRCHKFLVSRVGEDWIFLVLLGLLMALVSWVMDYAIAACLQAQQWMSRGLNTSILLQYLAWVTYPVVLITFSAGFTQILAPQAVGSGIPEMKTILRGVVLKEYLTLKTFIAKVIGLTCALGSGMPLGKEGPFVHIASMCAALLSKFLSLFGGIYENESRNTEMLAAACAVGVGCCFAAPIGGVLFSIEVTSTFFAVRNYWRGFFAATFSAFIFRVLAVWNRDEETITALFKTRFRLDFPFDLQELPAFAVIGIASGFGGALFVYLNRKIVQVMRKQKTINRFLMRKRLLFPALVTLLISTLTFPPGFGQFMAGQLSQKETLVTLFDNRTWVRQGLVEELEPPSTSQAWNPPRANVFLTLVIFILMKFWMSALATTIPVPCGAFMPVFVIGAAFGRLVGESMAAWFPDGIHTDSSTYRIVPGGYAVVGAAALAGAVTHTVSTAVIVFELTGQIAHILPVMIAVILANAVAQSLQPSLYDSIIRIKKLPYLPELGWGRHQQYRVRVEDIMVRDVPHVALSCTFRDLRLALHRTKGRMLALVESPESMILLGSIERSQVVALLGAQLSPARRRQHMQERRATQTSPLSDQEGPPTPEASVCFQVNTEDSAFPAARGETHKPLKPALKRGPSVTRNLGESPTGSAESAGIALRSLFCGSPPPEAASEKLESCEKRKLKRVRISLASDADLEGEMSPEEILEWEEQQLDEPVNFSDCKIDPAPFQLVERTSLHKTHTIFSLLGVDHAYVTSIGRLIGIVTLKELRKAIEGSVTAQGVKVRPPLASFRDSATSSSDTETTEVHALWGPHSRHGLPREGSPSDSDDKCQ
UniProt Q9UDT6: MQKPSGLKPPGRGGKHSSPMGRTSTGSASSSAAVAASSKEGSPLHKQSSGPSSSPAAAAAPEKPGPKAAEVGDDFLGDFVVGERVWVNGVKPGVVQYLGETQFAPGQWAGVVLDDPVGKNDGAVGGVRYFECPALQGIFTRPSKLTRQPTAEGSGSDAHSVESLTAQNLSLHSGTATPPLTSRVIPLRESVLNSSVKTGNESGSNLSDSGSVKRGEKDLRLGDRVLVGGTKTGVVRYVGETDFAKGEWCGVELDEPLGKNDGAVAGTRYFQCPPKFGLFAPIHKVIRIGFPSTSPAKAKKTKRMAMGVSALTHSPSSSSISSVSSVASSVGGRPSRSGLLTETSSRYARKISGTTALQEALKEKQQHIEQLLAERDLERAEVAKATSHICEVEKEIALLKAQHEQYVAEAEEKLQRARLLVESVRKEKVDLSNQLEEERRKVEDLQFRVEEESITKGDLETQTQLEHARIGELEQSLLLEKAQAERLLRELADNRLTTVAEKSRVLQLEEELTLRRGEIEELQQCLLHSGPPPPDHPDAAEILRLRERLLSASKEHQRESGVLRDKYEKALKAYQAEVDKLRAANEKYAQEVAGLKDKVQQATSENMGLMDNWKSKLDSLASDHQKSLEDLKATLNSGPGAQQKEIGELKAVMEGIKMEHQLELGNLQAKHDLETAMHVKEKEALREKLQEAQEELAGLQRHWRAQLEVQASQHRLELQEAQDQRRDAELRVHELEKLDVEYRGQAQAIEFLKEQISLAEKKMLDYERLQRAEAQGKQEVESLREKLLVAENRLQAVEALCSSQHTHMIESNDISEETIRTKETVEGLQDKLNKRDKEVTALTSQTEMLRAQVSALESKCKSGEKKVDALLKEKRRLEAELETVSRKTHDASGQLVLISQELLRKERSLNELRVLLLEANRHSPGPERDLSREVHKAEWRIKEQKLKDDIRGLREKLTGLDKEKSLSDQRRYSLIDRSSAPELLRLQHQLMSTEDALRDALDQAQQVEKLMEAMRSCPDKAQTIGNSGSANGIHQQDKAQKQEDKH
UniProt Q8WUX9: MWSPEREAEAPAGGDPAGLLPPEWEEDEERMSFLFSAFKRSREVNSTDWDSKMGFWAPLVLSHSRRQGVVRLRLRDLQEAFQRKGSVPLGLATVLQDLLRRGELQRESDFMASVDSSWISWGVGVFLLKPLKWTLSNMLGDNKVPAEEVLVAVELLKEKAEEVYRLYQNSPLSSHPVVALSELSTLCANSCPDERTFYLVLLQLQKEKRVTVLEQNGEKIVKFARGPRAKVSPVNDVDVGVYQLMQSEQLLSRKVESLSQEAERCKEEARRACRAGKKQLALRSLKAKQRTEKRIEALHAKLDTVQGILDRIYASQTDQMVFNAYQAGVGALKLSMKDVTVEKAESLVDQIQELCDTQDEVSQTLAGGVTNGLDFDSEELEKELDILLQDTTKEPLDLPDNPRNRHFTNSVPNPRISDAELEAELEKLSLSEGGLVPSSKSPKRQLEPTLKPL
UniProt O14646: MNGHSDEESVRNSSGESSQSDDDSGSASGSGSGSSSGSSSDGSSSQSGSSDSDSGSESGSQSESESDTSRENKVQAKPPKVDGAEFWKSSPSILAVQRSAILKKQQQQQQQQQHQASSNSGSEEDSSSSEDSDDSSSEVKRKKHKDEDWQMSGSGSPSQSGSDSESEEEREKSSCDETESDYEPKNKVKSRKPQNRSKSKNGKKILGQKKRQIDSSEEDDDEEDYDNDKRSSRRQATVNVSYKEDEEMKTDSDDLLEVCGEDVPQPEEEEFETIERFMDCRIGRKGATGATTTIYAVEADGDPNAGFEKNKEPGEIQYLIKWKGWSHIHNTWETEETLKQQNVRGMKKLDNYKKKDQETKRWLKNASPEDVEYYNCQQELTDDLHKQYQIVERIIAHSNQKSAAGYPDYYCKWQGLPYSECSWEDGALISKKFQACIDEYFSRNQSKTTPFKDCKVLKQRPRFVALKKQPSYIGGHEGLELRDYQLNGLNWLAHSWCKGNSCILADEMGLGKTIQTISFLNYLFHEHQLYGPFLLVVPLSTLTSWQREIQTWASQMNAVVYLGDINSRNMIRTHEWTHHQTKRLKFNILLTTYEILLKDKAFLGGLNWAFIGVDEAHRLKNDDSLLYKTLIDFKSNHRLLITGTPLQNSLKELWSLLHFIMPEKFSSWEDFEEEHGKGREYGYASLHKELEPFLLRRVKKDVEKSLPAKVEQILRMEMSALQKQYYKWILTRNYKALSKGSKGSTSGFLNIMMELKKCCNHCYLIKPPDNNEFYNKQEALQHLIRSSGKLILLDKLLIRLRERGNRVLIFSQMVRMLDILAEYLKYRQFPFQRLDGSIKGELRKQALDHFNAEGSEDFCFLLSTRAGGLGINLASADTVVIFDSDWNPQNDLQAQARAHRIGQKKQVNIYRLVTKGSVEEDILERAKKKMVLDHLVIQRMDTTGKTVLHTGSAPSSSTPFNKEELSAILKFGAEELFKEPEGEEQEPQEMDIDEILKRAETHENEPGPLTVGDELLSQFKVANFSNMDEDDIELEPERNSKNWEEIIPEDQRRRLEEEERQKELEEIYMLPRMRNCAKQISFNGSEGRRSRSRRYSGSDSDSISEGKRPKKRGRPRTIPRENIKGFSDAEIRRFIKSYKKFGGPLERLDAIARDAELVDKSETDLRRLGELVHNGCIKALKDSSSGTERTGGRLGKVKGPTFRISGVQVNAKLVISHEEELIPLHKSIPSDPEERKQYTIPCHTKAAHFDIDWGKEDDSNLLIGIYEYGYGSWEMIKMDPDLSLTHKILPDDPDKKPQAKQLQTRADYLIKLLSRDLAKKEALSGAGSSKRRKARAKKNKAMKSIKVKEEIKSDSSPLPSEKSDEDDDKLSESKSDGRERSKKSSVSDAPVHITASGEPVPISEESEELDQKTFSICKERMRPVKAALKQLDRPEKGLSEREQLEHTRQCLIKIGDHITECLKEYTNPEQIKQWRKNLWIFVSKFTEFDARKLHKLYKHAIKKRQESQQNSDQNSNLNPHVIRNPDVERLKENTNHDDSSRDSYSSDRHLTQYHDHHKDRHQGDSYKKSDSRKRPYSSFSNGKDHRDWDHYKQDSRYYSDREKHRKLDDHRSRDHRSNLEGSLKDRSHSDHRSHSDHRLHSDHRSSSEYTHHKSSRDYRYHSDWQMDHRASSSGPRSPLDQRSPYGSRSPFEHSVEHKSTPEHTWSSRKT
UniProt Q07065: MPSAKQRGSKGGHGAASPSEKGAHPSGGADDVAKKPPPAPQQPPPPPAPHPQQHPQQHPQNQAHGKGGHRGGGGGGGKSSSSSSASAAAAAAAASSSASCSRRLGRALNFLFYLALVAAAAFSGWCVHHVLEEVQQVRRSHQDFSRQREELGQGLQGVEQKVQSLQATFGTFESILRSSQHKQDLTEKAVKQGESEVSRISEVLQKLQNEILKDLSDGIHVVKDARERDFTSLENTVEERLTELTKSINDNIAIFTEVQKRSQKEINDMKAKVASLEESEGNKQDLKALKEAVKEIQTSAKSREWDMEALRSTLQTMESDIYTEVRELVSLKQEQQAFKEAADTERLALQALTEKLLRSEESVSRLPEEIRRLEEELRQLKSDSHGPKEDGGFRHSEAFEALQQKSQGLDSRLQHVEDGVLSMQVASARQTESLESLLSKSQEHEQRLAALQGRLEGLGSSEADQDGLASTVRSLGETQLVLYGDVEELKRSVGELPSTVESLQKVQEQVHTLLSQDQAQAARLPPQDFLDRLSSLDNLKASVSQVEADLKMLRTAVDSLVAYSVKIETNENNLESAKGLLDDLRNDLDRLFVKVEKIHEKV
UniProt Q86X52: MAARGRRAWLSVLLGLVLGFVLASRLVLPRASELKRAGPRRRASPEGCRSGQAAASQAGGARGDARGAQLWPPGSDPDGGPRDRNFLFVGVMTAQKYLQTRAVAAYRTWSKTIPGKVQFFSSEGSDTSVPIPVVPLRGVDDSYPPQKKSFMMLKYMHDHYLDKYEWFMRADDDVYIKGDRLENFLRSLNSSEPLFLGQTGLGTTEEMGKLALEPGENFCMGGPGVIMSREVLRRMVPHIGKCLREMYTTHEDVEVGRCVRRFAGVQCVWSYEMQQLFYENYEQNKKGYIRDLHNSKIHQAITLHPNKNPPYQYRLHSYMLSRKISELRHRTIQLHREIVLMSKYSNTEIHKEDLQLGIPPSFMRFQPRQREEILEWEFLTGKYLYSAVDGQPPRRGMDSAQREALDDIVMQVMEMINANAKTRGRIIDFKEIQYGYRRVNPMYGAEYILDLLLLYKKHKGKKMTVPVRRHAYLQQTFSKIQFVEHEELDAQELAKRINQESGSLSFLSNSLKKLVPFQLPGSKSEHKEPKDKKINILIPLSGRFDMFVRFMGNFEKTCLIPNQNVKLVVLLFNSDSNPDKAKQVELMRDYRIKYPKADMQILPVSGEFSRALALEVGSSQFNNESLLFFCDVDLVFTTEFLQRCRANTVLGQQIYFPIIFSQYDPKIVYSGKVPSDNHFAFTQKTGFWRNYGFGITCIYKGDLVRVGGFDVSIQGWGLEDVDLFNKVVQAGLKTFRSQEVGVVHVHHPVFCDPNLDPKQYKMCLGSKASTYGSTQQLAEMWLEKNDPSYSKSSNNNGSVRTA
UniProt Q99653: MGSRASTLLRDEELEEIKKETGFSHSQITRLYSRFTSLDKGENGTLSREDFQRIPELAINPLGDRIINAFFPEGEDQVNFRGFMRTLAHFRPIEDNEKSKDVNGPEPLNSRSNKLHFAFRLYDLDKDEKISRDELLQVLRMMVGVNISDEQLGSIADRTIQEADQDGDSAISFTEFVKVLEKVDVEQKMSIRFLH
UniProt Q8N3C7: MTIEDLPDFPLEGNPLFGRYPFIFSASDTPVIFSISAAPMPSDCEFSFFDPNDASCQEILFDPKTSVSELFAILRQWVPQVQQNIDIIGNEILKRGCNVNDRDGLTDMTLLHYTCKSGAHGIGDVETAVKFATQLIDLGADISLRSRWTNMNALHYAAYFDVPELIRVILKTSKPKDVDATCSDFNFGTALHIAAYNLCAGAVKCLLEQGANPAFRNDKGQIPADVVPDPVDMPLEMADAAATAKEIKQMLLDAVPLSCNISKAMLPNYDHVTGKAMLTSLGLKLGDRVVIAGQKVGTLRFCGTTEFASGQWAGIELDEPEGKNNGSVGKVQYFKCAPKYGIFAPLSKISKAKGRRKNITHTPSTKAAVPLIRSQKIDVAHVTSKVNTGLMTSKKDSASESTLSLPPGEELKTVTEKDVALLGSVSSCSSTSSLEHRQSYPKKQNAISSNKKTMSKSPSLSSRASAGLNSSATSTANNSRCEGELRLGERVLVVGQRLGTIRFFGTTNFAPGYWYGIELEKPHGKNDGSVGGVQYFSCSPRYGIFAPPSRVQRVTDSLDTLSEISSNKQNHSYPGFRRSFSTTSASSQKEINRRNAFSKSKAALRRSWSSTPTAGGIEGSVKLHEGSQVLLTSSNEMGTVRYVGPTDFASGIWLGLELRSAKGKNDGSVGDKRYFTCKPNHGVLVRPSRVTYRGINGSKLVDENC

How the values were obtained:
Experiment in all cases: log2 fold change, soluble protein after heating vs DMSO (PISA); higher = thermal stabilisation; K562 lysate, 10 uM; active = over 0.2 and 3.5 SD of the protein, either way, in both replicates (recomputed)
[1] = compound: C1=CC=C(C=C1)[C@H](COC2=CC3=C(C=C2)NC(=O)N3)NC(=O)C4=CC=CN(C4=O)CC5=CC(=C(C=C5)F)F
Procedure, shortened: (§1)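 Log-two fold change in thermal stability relative to solvent controls is reported from duplicates. For each sample, crude K562 extract from dounce-homogenised pellets in PBS pH 7.4 with 1 mM MgCl2, at 1 mg/mL protein, was treated with 10 μM compound for 30 min. Aliquots heated for 3 min across 48°C-58°C were pooled, brought to 0.5% NP-40 at 4°C and cleared at 21,000xg for 90 min. The supernatant was quantified by TMTpro 16plex LC-MS/MS with channel sums equalised.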

[2] = compound: CC1=C(SC2=C1C(=N[C@H](C3=NN=C(N32)C)CC(=O)N)C4=CC=C(C=C4)Cl)C
Procedure, shortened: as §1

[3] = compound: Cc1sc2c(c1C)C(c1ccc(Cl)cc1)=N[C@@H](CC(=O)OC(C)(C)C)c1nnc(C)n1-2
Procedure, shortened: as §1

[4] = compound: c1ccc([C@@H]2C[C@H]2NC2CCNCC2)cc1
Procedure, shortened: as §1

[5] = compound: CC1=C2C(=CC=C1)N=C(N(C2=O)C3=CC=CC=C3C)CN4C=NC5=C(N=CN=C54)N
Procedure, shortened: as §1

Measured: log2 fold change

CHPF (UniProt Q8IZ52)
inactive: [1] -0.064 | [2] -0.015 | [3] -0.133 | [4] -0.089

CHIC2 (UniProt Q9UKJ5)
inactive: [1] -0.073 | [2] 0.154 | [5] -0.033 | [3] -0.014 | [4] -0.012

CLCN2 (UniProt P51788)
inactive: [1] 0.081 | [2] 0.002 | [3] -0.066 | [4] 0

CLIP2 (UniProt Q9UDT6)
inactive: [1] 0.062 | [2] 0.18 | [3] 0.128 | [4] -0.139

CHMP7 (UniProt Q8WUX9)
inactive: [1] -0.225 | [2] 0.107 | [5] -0.001 | [3] 0.014 | [4] 0.035

CHMP2A (UniProt O43633)
inactive: [1] 0.027 | [2] 0.037 | [5] -0.003 | [3] 0.043 | [4] -0.046

CHD1 (UniProt O14646)
inactive: [1] -0.005 | [2] -0.018 | [5] -0.083 | [3] -0.057 | [4] 0.024

CKAP4 (UniProt Q07065)
inactive: [1] 0.005 | [2] -0.059 | [3] -0.013 | [4] 0.231

CHSY1 (UniProt Q86X52)
inactive: [1] 0.139 | [2] -0.105 | [3] 0.075 | [4] 0.232

CHP1 (UniProt Q99653)
inactive: [1] 0.013 | [2] -0.016 | [5] 0.041 | [3] -0.041 | [4] -0.051

CLIP4 (UniProt Q8N3C7)
inactive: [1] -0.081 | [2] -0.095 | [5] -0.018 | [4] 0.001

CLASP2 (UniProt O75122)
inactive: [1] 0.16 | [2] -0.248 | [5] -0.105 | [4] 0.002
